# Measured values reported in PMC4333095.
# Chains of the proteins cited; added tags and fusions are not shown. Lines headed by an entry give the natural chain unless they say otherwise; changes in a name come on top.
# UniProt Q5TYW1: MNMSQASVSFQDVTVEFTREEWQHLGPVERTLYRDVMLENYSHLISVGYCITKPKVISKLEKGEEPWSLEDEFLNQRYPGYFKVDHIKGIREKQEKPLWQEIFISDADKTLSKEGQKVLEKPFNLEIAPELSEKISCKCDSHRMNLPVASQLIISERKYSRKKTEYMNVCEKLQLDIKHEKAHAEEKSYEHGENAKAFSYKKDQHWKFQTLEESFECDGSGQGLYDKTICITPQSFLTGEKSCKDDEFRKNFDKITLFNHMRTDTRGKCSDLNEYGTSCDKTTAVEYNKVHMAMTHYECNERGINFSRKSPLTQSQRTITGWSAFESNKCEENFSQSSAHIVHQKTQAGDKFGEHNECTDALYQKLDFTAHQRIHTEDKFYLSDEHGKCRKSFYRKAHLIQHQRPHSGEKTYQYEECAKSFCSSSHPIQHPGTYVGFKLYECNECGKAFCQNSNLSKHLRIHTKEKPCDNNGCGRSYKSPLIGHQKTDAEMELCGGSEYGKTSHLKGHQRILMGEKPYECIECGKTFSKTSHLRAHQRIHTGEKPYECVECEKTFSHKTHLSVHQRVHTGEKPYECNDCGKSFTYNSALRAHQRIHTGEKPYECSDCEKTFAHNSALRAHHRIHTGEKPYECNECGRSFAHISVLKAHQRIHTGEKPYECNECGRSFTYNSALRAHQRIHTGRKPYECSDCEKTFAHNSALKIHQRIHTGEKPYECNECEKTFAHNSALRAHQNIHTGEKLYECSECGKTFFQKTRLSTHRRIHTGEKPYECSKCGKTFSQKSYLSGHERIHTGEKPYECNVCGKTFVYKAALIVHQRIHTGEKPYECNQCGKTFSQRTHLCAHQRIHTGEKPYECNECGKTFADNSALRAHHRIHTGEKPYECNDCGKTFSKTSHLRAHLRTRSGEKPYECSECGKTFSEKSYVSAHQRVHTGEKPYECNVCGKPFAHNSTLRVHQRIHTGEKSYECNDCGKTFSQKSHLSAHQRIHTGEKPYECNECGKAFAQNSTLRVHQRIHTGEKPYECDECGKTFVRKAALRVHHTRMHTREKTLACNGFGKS
# Where cells or extracts were used, other partners may take part. For part of these data: A negative result means that nothing was seen under these conditions. For part of these data: For at least one entry, the source does not settle the construct or the ends of the probe.
# Assays:
# [1] = target: ZNF658-myc-DDK (Homo sapiens) (UniProt Q5TYW1); assay: EMSA supershift; details: anti-myc supershift of the specific band; 50 fmol IRD probe, 5 ug Caco-2 protein extract, nondenaturing 5% PAGE; pH and temperature not given (ref 16); protein in a lysate after overexpression; residues 1-1059; protein details: C-terminal myc-DDK; label: IRD
# [2] = target: ZNF658 deltaZF12-15-myc-DDK del770-904 (Homo sapiens) (UniProt Q5TYW1); assay: EMSA; details: 50 fmol IRD probe, 5 ug Caco-2 protein extract, nondenaturing 5% PAGE; pH and temperature not given (ref 16); protein in a lysate after overexpression; residues 1-1059; protein details: C-terminal myc-DDK; label: IRD
# [3] = target: ZNF658-myc-DDK (Homo sapiens) (UniProt Q5TYW1); assay: competition EMSA; details: 200-fold excess over probe N1; 50 fmol IRD probe, 5 ug Caco-2 protein extract, nondenaturing 5% PAGE; pH and temperature not given (ref 16); protein in a lysate after overexpression; residues 1-1059; protein details: C-terminal myc-DDK; letters put together from the description
Sequence,binding result [1],binding result [2],binding result [3]
GTGGCGGGAGGAGCCTAAGGGACGAGGAAAGGCGAGTGTTCTGCTTGCGCAGACGCAAGGCTGGGCACTCCCCCGGGAGTGAGGGTTGCTGGGCCTGATGACGTGGCTTGGCAACGTCCCTACCGCCGCTGCTTCCCGGGAACCTGGCGCCGCCGGAACTGATCGCGGCCTAGTCCCGACGCGTGTGTGCTAGTGAGCCGGA (double strand) [SLC30A5 promoter probe -156 to +46],binds,no binding,
CGAGTGTTCTGCTTGCGCAGACGCAAGGCTGGGCACTCCCCCGGGAGTGA (double strand) [50-bp ZTRE competitor (-124 to -75)],,,binds
